Measured data: PubChem BioAssay AID1224829 (NIAID, 2016)
The whole screen tested about 3,800 reagents; below is an unselected part. 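Calls cover raised and lowered translocation; gene median uses one vendor's three siRNAs; qiagen siRNAs acted more weakly than ambion siRNAs.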 The numbers tell different reagents against one gene apart. Reagent sequences are not shown.

- Screen: 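Genes needed for LPS-driven NF-kappaB p65 nuclear entry in mouse macrophages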 (follow-up of hits)
- Cells: mouse RAW264.7 G9 macrophage reporter cells
- Knock-down reagent: single siRNA against mouse genes, 100 nM
- Duration: 2 days of siRNA knock-down, then 40 min of LPS before fixing
- Treatment: LPS (Salmonella minnesota R595) at 10 ng/ml
- Measured: 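High-content images after 40 min LPS exposure; GFP-p65 nucleus to surrounding ring signal ratio, normalised to plate median and non-targeting control wells, expressed as z-score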
- Reading the numbers: p65 translocation z-score and gene median z-score, per vendor: higher = more nuclear NF-kappaB p65 after LPS
- Call rule: 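An siRNA is called active when the mean z-score of its two replicates is above 2 or below -2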
- Calls: active = changed p65 translocation (either direction); inactive = no clear change

Gene | reagent no. | siRNA vendor or control pool | p65 translocation z-score, replicate mean | p65 translocation z-score, replicate 1 | p65 translocation z-score, replicate 2 | gene median z-score, per vendor | activity call
Man2b2 | 1 | ambion single siRNA | -2.21 | -2.28 | -2.13 | -2.13 | active
Man2b2 | 2 | ambion single siRNA | -2.04 | -2.02 | -2.06 | -2.13 | active
Man2b2 | 3 | ambion single siRNA | -2.98 | -2.98 | – | -2.13 | active
Man2b2 | 4 | qiagen single siRNA | 1.79 | 1.41 | 2.17 | 0.612 | inactive
Man2b2 | 5 | qiagen single siRNA | 0.612 | 1.18 | 0.0383 | 0.612 | inactive
Man2b2 | 6 | qiagen single siRNA | -2.36 | -2.18 | -2.53 | 0.612 | active
Efna5 | 1 | ambion single siRNA | -4.94 | -3.85 | -6.02 | -4.1 | active
Efna5 | 2 | ambion single siRNA | -4.36 | -4.1 | -4.61 | -4.1 | active
Efna5 | 3 | ambion single siRNA | -3.66 | -3.66 | – | -4.1 | active
Efna5 | 4 | qiagen single siRNA | -0.316 | -0.395 | -0.238 | -0.316 | inactive
Efna5 | 5 | qiagen single siRNA | -1.1 | -1.42 | -0.782 | -0.316 | inactive
Efna5 | 6 | qiagen single siRNA | 1.84 | 0.985 | 2.69 | -0.316 | inactive
Serpinc1 | 1 | ambion single siRNA | 2.18 | 2.9 | 1.45 | 1.21 | active
Serpinc1 | 2 | ambion single siRNA | 1.47 | 1.97 | 0.966 | 1.21 | inactive
Serpinc1 | 3 | ambion single siRNA | -1.16 | -2.11 | -0.202 | 1.21 | inactive
Serpinc1 | 4 | qiagen single siRNA | 3.31 | 1.11 | 5.52 | 1.12 | active
Serpinc1 | 5 | qiagen single siRNA | 0.552 | -0.0355 | 1.14 | 1.12 | inactive
Serpinc1 | 6 | qiagen single siRNA | 1.15 | 0.118 | 2.18 | 1.12 | inactive
Rab8a | 1 | ambion single siRNA | -0.748 | -0.787 | -0.709 | -0.748 | inactive
Rab8a | 2 | ambion single siRNA | -0.243 | 0.518 | -1 | -0.748 | inactive
Rab8a | 3 | ambion single siRNA | 0.164 | 1.62 | -1.29 | -0.748 | inactive
Rab8a | 4 | qiagen single siRNA | -1.73 | -2.68 | -0.782 | -0.8 | inactive
Rab8a | 5 | qiagen single siRNA | -0.115 | -0.817 | 0.586 | -0.8 | inactive
Rab8a | 6 | qiagen single siRNA | -0.611 | 0.131 | -1.35 | -0.8 | inactive
Sdk1 | 1 | ambion single siRNA | -1.33 | -0.885 | -1.77 | -2.32 | inactive
Sdk1 | 2 | ambion single siRNA | -3.64 | -3.11 | -4.18 | -2.32 | active
Sdk1 | 3 | ambion single siRNA | -2.32 | -2.6 | -2.03 | -2.32 | active
Sdk1 | 4 | qiagen single siRNA | -1.46 | -0.766 | -2.16 | -3.26 | inactive
Sdk1 | 5 | qiagen single siRNA | -6.22 | -6.22 | – | -3.26 | active
Sdk1 | 6 | qiagen single siRNA | -4.41 | -3.26 | -5.56 | -3.26 | active
Pdk3 | 1 | ambion single siRNA | 4.04 | 4.06 | 4.02 | -2.11 | active
Pdk3 | 2 | ambion single siRNA | -2.75 | -2.16 | -3.34 | -2.11 | active
Pdk3 | 3 | ambion single siRNA | -2.43 | -2.79 | -2.06 | -2.11 | active
Pdk3 | 4 | qiagen single siRNA | -1.38 | -1.67 | -1.08 | -1.24 | inactive
Pdk3 | 5 | qiagen single siRNA | -0.512 | -1.4 | 0.37 | -1.24 | inactive
Pdk3 | 6 | qiagen single siRNA | -0.85 | -0.214 | -1.49 | -1.24 | inactive
Il1r1 | 1 | ambion single siRNA | -0.547 | -0.71 | -0.384 | -1.37 | inactive
Il1r1 | 2 | ambion single siRNA | -9.3 | -9.3 | – | -1.37 | active
Il1r1 | 3 | ambion single siRNA | -1.65 | -1.93 | -1.37 | -1.37 | inactive
Il1r1 | 4 | qiagen single siRNA | 1.18 | -0.139 | 2.5 | 0.359 | inactive
Il1r1 | 5 | qiagen single siRNA | 1.84 | 0.359 | 3.32 | 0.359 | inactive
Il1r1 | 6 | qiagen single siRNA | -0.294 | -0.294 | – | 0.359 | inactive
Eloc | 1 | ambion single siRNA | -1.93 | -0.824 | -3.03 | -3.23 | inactive
Eloc | 2 | ambion single siRNA | -3.68 | -3.94 | -3.42 | -3.23 | active
Eloc | 3 | ambion single siRNA | -3.72 | -1.61 | -5.83 | -3.23 | active
Eloc | 4 | qiagen single siRNA | -1.98 | -1.39 | -2.58 | -1.26 | inactive
Eloc | 5 | qiagen single siRNA | -0.0145 | -1.13 | 1.1 | -1.26 | inactive
Eloc | 6 | qiagen single siRNA | -0.157 | 1.08 | -1.4 | -1.26 | inactive
Gab1 | 1 | ambion single siRNA | 1.84 | 3.06 | 0.617 | -1.79 | inactive
Gab1 | 2 | ambion single siRNA | – | – | – | -1.79 | inactive
Gab1 | 3 | ambion single siRNA | -4.9 | -4.19 | -5.6 | -1.79 | active
Gab1 | 4 | qiagen single siRNA | 2.24 | 2.14 | 2.35 | 2.14 | active
Gab1 | 5 | qiagen single siRNA | 2.37 | 1.03 | 3.71 | 2.14 | active
Gab1 | 6 | qiagen single siRNA | 0.899 | 0.899 | – | 2.14 | inactive
H2-K1 | 1 | ambion single siRNA | 0.186 | 0.186 | – | -1.27 | inactive
H2-K1 | 2 | ambion single siRNA | -0.709 | -1.27 | -0.151 | -1.27 | inactive
H2-K1 | 3 | ambion single siRNA | -11.5 | -13.1 | -9.95 | -1.27 | active
H2-K1 | 4 | qiagen single siRNA | -0.0187 | -1.24 | 1.2 | -1.29 | inactive
H2-K1 | 5 | qiagen single siRNA | -1.19 | -1.61 | -0.76 | -1.29 | inactive
H2-K1 | 6 | qiagen single siRNA | -2.19 | -1.34 | -3.04 | -1.29 | active
Cd209c | 1 | ambion single siRNA | 0.183 | 0.582 | -0.216 | -1.02 | inactive
Cd209c | 2 | ambion single siRNA | -3.63 | -3.15 | -4.11 | -1.02 | active
Cd209c | 3 | ambion single siRNA | -0.238 | 1.34 | -1.81 | -1.02 | inactive
Cd209c | 4 | qiagen single siRNA | -0.638 | 0.154 | -1.43 | -0.435 | inactive
Cd209c | 5 | qiagen single siRNA | -0.0168 | -0.265 | 0.232 | -0.435 | inactive
Cd209c | 6 | qiagen single siRNA | -0.811 | -1.02 | -0.606 | -0.435 | inactive

Sorted by “p65 translocation z-score, replicate mean” (high to low): 9 of the entries above
Gene | reagent no. | siRNA vendor or control pool | p65 translocation z-score, replicate mean | p65 translocation z-score, replicate 1 | p65 translocation z-score, replicate 2 | gene median z-score, per vendor | activity call
Serpinc1 | 4 | qiagen single siRNA | 3.31 | 1.11 | 5.52 | 1.12 | active
Serpinc1 | 1 | ambion single siRNA | 2.18 | 2.9 | 1.45 | 1.21 | active
Efna5 | 6 | qiagen single siRNA | 1.84 | 0.985 | 2.69 | -0.316 | inactive
Serpinc1 | 2 | ambion single siRNA | 1.47 | 1.97 | 0.966 | 1.21 | inactive
Serpinc1 | 5 | qiagen single siRNA | 0.552 | -0.0355 | 1.14 | 1.12 | inactive
Efna5 | 4 | qiagen single siRNA | -0.316 | -0.395 | -0.238 | -0.316 | inactive
Efna5 | 5 | qiagen single siRNA | -1.1 | -1.42 | -0.782 | -0.316 | inactive
Serpinc1 | 3 | ambion single siRNA | -1.16 | -2.11 | -0.202 | 1.21 | inactive
Efna5 | 3 | ambion single siRNA | -3.66 | -3.66 | – | -4.1 | active
